# Assay results: the supplement of paper PMC3334620
# The full ranking holds about 33,000 sequences; the median of “E-score (-0.5 to 0.5)” is about -0.015, and the highest 2% start at about 0.3. Some of the results follow.
# Biological target: T1, Abf1 (UniProt P14164)
# T1 sequence: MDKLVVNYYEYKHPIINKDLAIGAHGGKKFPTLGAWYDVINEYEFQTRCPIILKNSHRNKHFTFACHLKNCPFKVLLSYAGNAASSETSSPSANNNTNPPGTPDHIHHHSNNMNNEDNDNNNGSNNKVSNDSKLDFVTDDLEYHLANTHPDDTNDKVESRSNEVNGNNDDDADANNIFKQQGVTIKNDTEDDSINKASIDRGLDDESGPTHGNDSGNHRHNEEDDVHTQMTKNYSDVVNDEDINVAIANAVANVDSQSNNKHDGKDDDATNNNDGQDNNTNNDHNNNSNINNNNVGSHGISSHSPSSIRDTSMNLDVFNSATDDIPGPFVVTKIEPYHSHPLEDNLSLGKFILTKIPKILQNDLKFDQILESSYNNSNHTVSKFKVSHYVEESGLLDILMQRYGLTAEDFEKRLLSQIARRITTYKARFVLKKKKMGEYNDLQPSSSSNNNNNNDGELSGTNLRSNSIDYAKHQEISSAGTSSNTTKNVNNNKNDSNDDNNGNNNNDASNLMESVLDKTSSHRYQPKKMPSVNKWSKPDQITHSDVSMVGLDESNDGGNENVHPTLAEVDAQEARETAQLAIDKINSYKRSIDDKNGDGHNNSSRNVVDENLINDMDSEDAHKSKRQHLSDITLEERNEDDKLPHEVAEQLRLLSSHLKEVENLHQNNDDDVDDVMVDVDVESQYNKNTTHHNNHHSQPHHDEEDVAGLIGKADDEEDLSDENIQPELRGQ
# Assay: PBM E-score (8-mer binding enrichment) (E-score (-0.5 to 0.5)); higher = stronger / more preferred TF binding
# Settings: protein concentration: 200 nM; construct: GST-full length
# Procedure, shortened: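 For each ungapped eight-base word taken together with its reverse complement, the Universal PBM Analysis Suite assigned an E-score. Binding data came from GST-tagged yeast transcription factors, applied at about 100-200 nM, on universal all-10-mer Agilent arrays made double-stranded by primer extension. Fluorescent anti-GST marked bound protein, and scans were normalised with masliner.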
row,Sequence,PBM E-score
1,ACTGCGCA,0.181
2,AATTACTG,-0.0681
3,ACCCCATC,-0.128
4,ACAGTTGA,-0.00384
5,CATGGACC,0.00992
6,ATCCGACC,0.0717
7,ATCAGTAG,0.0503
8,AGTTTATA,0.0788
9,CCCATAAC,0.0387
10,CGAATTAA,0.16
11,AAACGTGC,0.0805
12,AGCTTCCG,-0.0688
13,CCATGTCG,0.0896
14,ATGGCGTC,-0.16
15,ACTTGCGA,0.0437
16,AAGTATAT,0.103
17,CCGGACCA,-0.203
18,ACAAGCCC,-0.126
19,ACAGGCAT,-0.0158
20,AGCCGGAG,-0.0233
21,AGGATCGA,-0.0985
22,GTATACAC,0.107
23,CCTGAACC,-0.0922
24,GAAGGCAC,-0.0473
25,CCATGTCA,0.262

row,Sequence,PBM E-score
1,GGCAGCCC,-0.278
2,AGCAAGCG,0.0258
3,CCTTGGAC,-0.0293
4,CTTAGTGC,-0.0935
5,GGGGACAC,-0.232
6,GTTGCGCA,0.0411
7,TGTCCAAA,0.14
8,GTGTCCGA,0.105
9,AAGACCTT,-0.0155
10,ATTCCGTC,-0.0258
11,AAGCCTAC,-0.101
12,CACCGGGC,-0.0781
13,GGGGGTGA,-0.0468
14,AACCCACT,0.0769
15,AGGAGGAT,-0.316
16,CTTGGAAA,-0.144
17,ACCAGCCT,-0.0776
18,GCTTGTCC,0.119
19,CCAGCGAG,-0.113
20,CCCGCTTC,-0.212
21,GTTAAAAA,0.22
22,ATCAATTC,0.153
23,ATGTACAT,0.292
24,AGCCGTCA,0.164
25,CGTACCAG,0.0671

row,Sequence,PBM E-score
1,TTGGACAA,0.0357
2,ATGGTAAT,0.0696
3,AGATCGTA,0.161
4,AACCATGG,-0.155
5,AGCCACGG,0.11
6,CTAGGTGA,0.0187
7,CAGTGCAG,-0.127
8,ACGCACGC,-0.0387
9,CGTAGCCA,0.151
10,ACTGAAGG,-0.0571
11,AAACCTGA,-0.241
12,GCGCTTGA,-0.0555
13,AGTCTAGC,-0.222
14,GACATCCC,0.0674
15,AATATAAA,0.106
16,ATATTACA,0.26
17,GAATCGTC,0.239
18,CTTGGTAA,-0.204
19,CGGTTGGC,0.0254
20,GGCAGAAC,-0.235
21,ATTCGAGG,-0.103
22,CTCAACAA,-0.0105
23,CCAGAGGG,-0.267
24,ATCTTTGG,-0.139
25,GATCCTAA,0.0497

row,Sequence,PBM E-score
1,CCTGTAAA,-0.242
2,CCCTGAAA,0.0186
3,AAAGCCAA,-0.094
4,AGATATGG,0.0661
5,AGTTTCCC,0.102
6,CCACGAGC,0.104
7,ACTTTTAA,0.0622
8,CGCGAAGA,-0.0372
9,GATCGGGC,-0.195
10,ACCGCGCT,-0.0598
11,ACTGCGGA,-0.198
12,ACTCTCGC,-0.0437
13,CCGACTGC,-0.186
14,ACTCAGCT,-0.217
15,ATCTGCAA,-0.0241
16,AGGAACGA,0.0039
17,AGCACGCC,-0.0981
18,AGGAGGTA,0.0411
19,GCAGACAA,0.0735
20,CAGACTTC,-0.283
21,ATTTTAGA,0.0294
22,GGTCCAAA,-0.252
23,AGACCCAC,-0.172
24,GGCCCGAA,-0.0977
25,ATGGGTTA,-0.0945

row,Sequence,PBM E-score
1,CCGCTTCA,-0.141
2,AGAGAGAT,0.0914
3,AATCATCG,0.179
4,GGGCGACA,-0.129
5,GCCGCGAC,0.109
6,CATGTTAA,0.0065
7,ATCCCGAG,0.0146
8,ATTAGGCC,-0.00913
9,GAGGAATA,0.0204
10,ACTTTTTG,0.0774
11,GTACTACA,0.279
12,ACCAGTCC,-0.238
13,TAGAATGA,0.119
14,CACTTGAC,0.0447
15,GACTTATC,0.179
16,AGCTACTA,-0.0232
17,GCCCCGGC,-0.204
18,CGGTCCAC,-0.0116
19,GGGCACGA,-0.00213
20,AAGAGCCG,-0.135
21,CGGTTGAA,0.0448
22,AGAGACGC,-0.0432
23,AGTGGAGG,-0.0153
24,ATCGGAGG,-0.134
25,ACATGCGG,0.126

row,Sequence,PBM E-score
1,GCTATGCA,-0.102
2,ATCTACTC,0.0722
3,CTAGAGCA,-0.0213
4,ATTCTCAC,0.0667
5,GTACAGGA,0.157
6,ACTGTAAT,-0.06
7,ACGCCGTG,0.188
8,AGCCACAT,-0.0203
9,CGCGACAA,0.217
10,AACAGTGT,-0.0246
11,CACAAGCC,-0.218
12,CGACGATC,0.298
13,CCCATTTA,-0.0213
14,CTCACTTC,-0.0359
15,GATTTGGC,-0.128
16,ATGCCCGA,0.219
17,AGCATAGA,-0.15
18,ACGTCACT,0.39
19,CGGCGCAA,-0.124
20,CCACATAA,0.0942
21,TAATATTA,0.361
22,CCTCTCGC,-0.106
23,ATCGCAAT,0.106
24,GCTTAAGC,-0.151
25,CTCGGATA,0.0365

row,Sequence,PBM E-score
1,CTTCTTTC,-0.0906
2,GCGCGAGA,0.00596
3,CGTCAAGA,0.141
4,TAGACCTA,-0.0392
5,CGTAAACC,-0.132
6,ATGGGGTC,-0.0774
7,TGAGGTAA,-0.0293
8,ATGATCAT,0.387
9,AAAGGAGG,-0.243
10,CAATAATC,-0.0515
11,CGAGGGCC,-0.13
12,GAAGTCTC,-0.0571
13,CGGAAACA,-0.171
14,GATACACC,0.1
15,AGGCCGGA,-0.0884
16,CATAGACG,0.11
17,ACGAACGT,0.289
18,AAAAAGTT,0.00475
19,GGACATCA,0.215
20,AGATGTTA,-0.0783
21,TGAATTCA,0.171
22,GATCGTGA,0.206

# Retrieved one by one from above (7):
row,Sequence,PBM E-score
3,CCTTGGAC,-0.0293
22,AGAGACGC,-0.0432
5,AGTTTCCC,0.102
17,AGCACGCC,-0.0981
1,GGCAGCCC,-0.278
23,CCTGAACC,-0.0922
14,CTCACTTC,-0.0359
